# Reference: patent US10351547B2, “Somatostatin modulators and uses thereof” (priority 2016, dated 2019)
# The chains behind the UniProt entries cited, without tags or fusion partners.
# UniProt P30874, whole entry: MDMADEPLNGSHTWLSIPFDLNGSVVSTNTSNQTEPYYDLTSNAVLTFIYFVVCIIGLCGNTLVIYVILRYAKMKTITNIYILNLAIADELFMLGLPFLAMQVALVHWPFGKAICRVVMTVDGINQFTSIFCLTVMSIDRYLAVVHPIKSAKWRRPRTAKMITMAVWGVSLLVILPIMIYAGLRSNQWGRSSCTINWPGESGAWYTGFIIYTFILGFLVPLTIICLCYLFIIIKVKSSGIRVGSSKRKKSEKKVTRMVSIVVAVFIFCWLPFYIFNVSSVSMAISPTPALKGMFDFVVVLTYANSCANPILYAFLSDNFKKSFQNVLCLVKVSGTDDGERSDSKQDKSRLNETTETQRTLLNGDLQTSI
# Some entries of the source have several records that differ or are many. This list holds those alone. There may be further records. Values given together differ for a reason that is not stated; some may be repeats, others may stem from another dose, organism or construct than stated.
# Target: human SSTR2 (Homo sapiens (Human), UniProt P30874)
# Assay: Human SSTR2 intracellular cAMP functional assay for agonists (HTRF)
# Format: cell-based
# Details: read-out: EC50 (inhibition of cAMP activities via human SST2R); CHO-K1 cells stably expressing human SSTR2; NKH477-stimulated cAMP
structure (smiles),measurement,value
N#Cc1ccnc(-c2ccc3ncc(-c4cc(F)cc(F)c4)c(N4CC[C@H]5NCCO[C@@H]5C4)c3c2)c1O (relative stereo),EC50,100 nM to 1 µM and < 10 nM
